The supplement of paper PMC11732987, “Enantioselective OTUD7B fragment discovery through chemoproteomics screening and high-throughput optimisation” (Communications Chemistry, 2025)
This is one part of the list. The data scatter; read single values as rough.

Protein sequences, listed by entry. Tags and fused reporters are not part of them. Lines headed by an entry give the natural chain unless they say otherwise; changes in a name come on top. Residues count along the entry.
UniProt P78371: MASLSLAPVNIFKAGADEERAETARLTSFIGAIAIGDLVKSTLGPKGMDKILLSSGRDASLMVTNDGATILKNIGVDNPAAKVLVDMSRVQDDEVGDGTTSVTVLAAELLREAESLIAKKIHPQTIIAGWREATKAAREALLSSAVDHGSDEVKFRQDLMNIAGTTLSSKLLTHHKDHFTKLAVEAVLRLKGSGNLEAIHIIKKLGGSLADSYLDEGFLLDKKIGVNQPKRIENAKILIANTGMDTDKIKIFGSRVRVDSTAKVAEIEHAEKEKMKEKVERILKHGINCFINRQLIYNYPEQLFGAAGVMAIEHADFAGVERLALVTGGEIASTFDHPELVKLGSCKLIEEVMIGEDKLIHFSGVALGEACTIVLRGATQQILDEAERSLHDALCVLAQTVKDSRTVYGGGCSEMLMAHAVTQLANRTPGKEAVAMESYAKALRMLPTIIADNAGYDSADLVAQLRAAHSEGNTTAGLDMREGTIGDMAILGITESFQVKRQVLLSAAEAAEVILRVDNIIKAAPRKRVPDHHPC
UniProt Q99459: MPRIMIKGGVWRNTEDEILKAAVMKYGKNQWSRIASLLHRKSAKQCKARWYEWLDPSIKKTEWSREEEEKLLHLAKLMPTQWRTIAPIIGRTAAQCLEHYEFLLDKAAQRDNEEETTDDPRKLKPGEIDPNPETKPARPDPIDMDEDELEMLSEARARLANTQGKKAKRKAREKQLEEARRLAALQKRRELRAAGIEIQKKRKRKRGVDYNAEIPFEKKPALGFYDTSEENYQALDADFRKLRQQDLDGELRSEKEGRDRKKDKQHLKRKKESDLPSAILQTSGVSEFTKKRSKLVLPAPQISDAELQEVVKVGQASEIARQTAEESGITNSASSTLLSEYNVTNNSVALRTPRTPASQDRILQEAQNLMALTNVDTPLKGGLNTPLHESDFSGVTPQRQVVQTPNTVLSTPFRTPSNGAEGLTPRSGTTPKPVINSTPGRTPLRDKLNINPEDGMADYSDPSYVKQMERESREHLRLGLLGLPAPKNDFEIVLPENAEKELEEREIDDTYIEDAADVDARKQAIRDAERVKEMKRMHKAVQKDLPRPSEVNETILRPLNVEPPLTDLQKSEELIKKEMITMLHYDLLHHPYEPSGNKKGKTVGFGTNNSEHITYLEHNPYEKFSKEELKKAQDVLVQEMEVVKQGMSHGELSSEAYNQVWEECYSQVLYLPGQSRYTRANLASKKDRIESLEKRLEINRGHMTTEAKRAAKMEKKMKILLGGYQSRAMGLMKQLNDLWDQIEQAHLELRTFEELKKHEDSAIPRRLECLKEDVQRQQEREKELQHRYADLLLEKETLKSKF
UniProt P50991: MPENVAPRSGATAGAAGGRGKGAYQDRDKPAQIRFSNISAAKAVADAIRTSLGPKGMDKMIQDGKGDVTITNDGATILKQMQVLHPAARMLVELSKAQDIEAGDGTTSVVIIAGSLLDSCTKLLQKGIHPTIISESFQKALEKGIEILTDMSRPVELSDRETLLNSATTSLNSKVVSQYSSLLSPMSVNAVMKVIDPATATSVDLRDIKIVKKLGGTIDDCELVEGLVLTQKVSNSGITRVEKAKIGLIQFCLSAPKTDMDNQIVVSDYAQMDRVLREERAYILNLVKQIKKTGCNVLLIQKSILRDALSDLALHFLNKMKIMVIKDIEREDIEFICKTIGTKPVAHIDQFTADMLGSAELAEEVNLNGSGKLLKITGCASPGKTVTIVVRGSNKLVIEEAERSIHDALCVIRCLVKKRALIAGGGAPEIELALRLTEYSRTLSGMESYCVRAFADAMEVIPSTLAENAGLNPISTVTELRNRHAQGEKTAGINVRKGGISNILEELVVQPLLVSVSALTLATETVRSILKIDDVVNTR
UniProt Q86WJ1, 321-348: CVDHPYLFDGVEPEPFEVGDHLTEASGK
UniProt Q5T9S5: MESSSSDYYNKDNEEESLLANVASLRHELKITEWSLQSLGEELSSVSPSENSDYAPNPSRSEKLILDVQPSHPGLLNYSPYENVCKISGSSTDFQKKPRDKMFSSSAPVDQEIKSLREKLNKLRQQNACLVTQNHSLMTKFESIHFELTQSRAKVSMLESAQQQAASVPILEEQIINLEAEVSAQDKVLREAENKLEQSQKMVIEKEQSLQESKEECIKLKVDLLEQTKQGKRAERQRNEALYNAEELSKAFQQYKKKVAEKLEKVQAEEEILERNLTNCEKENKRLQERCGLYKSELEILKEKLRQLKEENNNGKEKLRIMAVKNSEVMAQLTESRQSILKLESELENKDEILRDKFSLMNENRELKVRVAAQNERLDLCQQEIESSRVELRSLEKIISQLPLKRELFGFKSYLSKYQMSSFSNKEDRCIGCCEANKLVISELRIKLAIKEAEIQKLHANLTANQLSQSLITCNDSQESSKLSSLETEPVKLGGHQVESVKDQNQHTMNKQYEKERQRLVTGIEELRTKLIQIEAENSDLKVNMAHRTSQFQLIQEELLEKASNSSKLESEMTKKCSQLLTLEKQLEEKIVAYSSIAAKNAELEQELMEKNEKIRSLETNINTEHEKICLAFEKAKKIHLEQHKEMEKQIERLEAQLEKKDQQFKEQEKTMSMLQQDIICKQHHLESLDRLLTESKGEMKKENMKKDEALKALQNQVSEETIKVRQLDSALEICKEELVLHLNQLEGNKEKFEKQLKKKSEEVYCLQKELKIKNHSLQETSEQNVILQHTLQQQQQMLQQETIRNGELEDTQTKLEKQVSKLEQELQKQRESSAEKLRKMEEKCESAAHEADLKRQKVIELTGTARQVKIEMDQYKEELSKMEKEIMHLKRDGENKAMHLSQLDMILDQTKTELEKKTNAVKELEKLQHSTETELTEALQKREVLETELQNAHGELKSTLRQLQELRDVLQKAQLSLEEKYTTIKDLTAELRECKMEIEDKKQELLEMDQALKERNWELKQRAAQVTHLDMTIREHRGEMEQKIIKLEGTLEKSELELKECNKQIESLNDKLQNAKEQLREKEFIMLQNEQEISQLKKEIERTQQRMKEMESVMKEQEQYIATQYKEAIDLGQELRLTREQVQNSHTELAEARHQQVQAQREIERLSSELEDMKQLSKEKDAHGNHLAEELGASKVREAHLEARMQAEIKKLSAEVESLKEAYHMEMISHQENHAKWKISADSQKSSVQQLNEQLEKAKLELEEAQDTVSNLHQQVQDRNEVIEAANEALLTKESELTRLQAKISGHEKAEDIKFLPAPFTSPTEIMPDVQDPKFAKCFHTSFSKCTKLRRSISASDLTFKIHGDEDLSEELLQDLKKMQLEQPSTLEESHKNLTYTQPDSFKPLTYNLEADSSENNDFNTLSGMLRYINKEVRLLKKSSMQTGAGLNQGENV
UniProt P42773: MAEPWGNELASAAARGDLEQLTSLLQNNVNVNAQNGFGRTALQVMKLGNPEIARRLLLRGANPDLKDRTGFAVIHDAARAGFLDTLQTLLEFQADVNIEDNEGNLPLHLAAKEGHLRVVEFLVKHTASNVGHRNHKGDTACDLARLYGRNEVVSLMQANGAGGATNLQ
UniProt Q96A19: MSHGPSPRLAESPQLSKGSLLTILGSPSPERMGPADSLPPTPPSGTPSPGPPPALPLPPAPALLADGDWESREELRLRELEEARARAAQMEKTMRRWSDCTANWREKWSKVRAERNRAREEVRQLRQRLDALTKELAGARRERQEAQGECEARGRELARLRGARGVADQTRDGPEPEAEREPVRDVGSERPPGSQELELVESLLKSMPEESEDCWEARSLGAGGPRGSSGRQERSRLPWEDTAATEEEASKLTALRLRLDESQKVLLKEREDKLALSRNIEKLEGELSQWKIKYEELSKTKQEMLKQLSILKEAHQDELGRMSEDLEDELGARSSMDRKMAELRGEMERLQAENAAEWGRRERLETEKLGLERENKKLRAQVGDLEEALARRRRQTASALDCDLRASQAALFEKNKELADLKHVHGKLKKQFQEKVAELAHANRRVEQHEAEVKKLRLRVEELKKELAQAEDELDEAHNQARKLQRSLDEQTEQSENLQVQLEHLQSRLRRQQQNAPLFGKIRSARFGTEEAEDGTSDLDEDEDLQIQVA
UniProt Q96M89: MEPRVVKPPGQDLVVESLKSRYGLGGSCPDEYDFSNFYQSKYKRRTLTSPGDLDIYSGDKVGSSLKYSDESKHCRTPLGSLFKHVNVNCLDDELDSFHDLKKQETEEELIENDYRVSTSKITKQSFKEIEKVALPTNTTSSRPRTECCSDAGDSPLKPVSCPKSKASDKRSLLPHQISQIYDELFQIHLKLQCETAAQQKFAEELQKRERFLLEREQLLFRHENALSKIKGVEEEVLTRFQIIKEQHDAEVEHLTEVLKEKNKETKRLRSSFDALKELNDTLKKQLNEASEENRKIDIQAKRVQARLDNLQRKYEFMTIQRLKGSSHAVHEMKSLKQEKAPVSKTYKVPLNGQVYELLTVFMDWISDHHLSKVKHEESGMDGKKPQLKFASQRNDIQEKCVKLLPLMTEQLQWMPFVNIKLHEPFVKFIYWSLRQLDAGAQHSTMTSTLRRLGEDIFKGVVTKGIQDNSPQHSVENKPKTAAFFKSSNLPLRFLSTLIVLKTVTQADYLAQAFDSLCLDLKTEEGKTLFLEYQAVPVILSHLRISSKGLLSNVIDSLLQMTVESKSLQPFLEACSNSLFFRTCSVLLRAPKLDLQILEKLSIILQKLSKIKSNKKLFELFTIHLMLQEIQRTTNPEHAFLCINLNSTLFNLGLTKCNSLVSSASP
UniProt Q96SZ6: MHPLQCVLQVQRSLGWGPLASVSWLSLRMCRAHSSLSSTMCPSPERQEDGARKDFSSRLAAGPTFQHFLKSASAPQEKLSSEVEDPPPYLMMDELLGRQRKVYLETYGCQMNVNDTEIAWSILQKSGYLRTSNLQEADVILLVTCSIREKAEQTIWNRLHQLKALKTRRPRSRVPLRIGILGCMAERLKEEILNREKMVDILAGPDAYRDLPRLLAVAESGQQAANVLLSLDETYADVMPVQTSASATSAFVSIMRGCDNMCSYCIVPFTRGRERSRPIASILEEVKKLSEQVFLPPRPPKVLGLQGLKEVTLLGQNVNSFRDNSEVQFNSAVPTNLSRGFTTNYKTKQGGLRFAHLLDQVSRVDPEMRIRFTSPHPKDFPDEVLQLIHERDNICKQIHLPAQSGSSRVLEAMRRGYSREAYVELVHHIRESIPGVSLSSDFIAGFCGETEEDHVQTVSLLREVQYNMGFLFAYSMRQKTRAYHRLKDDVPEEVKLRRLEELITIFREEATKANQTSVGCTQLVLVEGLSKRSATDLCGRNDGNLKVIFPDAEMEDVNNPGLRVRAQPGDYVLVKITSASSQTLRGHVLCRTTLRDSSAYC
UniProt Q96ER9: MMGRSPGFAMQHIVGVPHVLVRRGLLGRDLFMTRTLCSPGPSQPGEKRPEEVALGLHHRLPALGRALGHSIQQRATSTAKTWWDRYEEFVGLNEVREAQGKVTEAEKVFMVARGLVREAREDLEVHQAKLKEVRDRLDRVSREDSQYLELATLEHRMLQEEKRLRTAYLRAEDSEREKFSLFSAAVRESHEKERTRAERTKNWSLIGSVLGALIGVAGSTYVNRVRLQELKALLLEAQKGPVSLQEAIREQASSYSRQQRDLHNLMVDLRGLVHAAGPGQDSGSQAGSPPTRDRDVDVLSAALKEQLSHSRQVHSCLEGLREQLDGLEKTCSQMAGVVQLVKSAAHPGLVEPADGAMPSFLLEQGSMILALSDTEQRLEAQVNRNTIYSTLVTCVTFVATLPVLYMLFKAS
UniProt Q96JM3: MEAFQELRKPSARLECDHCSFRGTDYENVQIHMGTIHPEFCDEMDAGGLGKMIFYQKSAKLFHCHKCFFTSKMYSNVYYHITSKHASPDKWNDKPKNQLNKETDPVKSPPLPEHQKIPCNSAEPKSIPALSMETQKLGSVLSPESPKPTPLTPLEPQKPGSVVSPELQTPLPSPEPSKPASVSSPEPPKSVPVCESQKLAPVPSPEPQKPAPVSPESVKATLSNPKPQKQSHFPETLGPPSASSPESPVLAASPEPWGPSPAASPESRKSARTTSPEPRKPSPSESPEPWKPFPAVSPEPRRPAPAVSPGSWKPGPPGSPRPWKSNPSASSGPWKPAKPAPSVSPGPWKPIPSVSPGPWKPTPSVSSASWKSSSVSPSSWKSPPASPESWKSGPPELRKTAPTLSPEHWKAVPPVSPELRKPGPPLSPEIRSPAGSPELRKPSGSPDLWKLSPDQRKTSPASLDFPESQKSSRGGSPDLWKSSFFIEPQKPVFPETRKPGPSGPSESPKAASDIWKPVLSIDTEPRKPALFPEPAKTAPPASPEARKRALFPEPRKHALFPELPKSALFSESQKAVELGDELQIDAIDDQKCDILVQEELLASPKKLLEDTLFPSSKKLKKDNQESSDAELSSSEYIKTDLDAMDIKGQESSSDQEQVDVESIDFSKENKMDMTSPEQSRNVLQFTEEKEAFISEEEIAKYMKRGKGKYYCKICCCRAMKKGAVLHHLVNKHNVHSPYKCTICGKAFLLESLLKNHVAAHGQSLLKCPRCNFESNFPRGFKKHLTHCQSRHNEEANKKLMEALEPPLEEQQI

What follows are targets tested with ClCC(=O)N[C@@H]1CCCc2ccccc12 (assay: log2 mean competition ratio of IA-DTB cysteine labelling (DMSO/compound) (log2 ratio); higher = stronger cysteine engagement by compound). Settings: 50 µM; treatment time: 4 h; cell line lysate: HEK293T.
Protocol: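 IA-DTB competitive cysteine chemoproteomics in HEK293T RIPA lysate. Lysates were treated with compound 29 or 30 at 50 or 200 µM for 4 h, then IA-DTB (500 µM, 1 h), trypsin-digested, NeutrAvidin-enriched and analysed by diaPASEF. Competition ratio = intensity DMSO / intensity compound (n=4 treated, n=64 DMSO); binding: mean log2 CR ≥ 1 and p ≤ 0.05 plus QC filters. Target is the cysteine site.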

Row | Target | log2 mean competition ratio
1 | CDK5RAP3 C165 (UniProt Q96JB5) | 0.126
2 | CCT2 C535 (UniProt P78371) | -0.0082
3 | CDC5L C769 (UniProt Q99459) | -0.0307
4 | CCT4 C379 (UniProt P50991) | -0.0552
5 | CCDC85B C116 (UniProt Q15834) | 0.0893
6 | CDKN2AIP C24 (UniProt Q9NXV6) | 0.0792
7 | CDK5 C83 (UniProt Q00535) | -0.314
8 | CCT7 C370 (UniProt Q99832) | 0.104
9 | CDC42BPB C784 (UniProt Q9Y5S2) | 0.0272
10 | CHD1L C321 (UniProt Q86WJ1) | -0.562
11 | CCDC18 C681 (UniProt Q5T9S5) | -0.00293
12 | CDKN2C C141 (UniProt P42773) | -0.0786
13 | CCDC102A C402 (UniProt Q96A19) | -0.279
14 | CCDC138 C193 (UniProt Q96M89) | 0.0278
15 | CDK5RAP1 C538 (UniProt Q96SZ6) | -0.213
16 | CCT4 C295 (UniProt P50991) | 0.146
17 | CCDC51 C316 (UniProt Q96ER9) | -0.383
18 | CERT1 C70 | 0.249
19 | CHAMP1 C119 (UniProt Q96JM3) | -0.00765
20 | CFAP97 C27 (UniProt Q9P2B7) | -0.267

Same assay, conditions: 200 µM; treatment time: 4 h; cell line lysate: HEK293T

Row | Target | log2 mean competition ratio
21 | CDK5RAP3 C165 (UniProt Q96JB5) | -0.0193
22 | CCT2 C535 (UniProt P78371) | -0.175
23 | CDC5L C769 (UniProt Q99459) | 0.251
24 | CCT4 C379 (UniProt P50991) | -0.128
25 | CCDC85B C116 (UniProt Q15834) | -0.326
26 | CDKN2AIP C24 (UniProt Q9NXV6) | 0.0711
27 | CDK5 C83 (UniProt Q00535) | 0.592
28 | CCT7 C370 (UniProt Q99832) | -0.236
29 | CDC42BPB C784 (UniProt Q9Y5S2) | -0.199
30 | CHD1L C321 (UniProt Q86WJ1) | -0.253
31 | CCDC18 C681 (UniProt Q5T9S5) | 0.0282
32 | CDKN2C C141 (UniProt P42773) | 0.0072
33 | CCDC102A C402 (UniProt Q96A19) | 0.226
34 | CCDC138 C193 (UniProt Q96M89) | -0.0104
35 | CDK5RAP1 C538 (UniProt Q96SZ6) | 0.0673
36 | CCT4 C295 (UniProt P50991) | -0.119
37 | CCDC51 C316 (UniProt Q96ER9) | 0.229
38 | CERT1 C70 | 0.162
39 | CHAMP1 C119 (UniProt Q96JM3) | -0.292
40 | CFAP97 C27 (UniProt Q9P2B7) | 0.322
